No constants are given. Whether binding was seen depends on the method and setting. Binding seen in cells or lysates may run through a third protein.
Target: GST-ATF3 leucine zipper (Zip) domain
Test: pull-down; 1 ug GST or GST fusion protein immobilized on glutathione-agarose, incubated with 5 ul in vitro-translated protein; 20 mM Tris-HCl pH 8.0, 100 mM NaCl, 2 mM EDTA, 2 mM DTT, 5% glycerol, 0.4% NP-40, 4 C overnight; washes with 150 mM NaCl; Western blotting; only the target purified

- binding: no binding
B1: in vitro translated PXR (protein, UniProt O75469 1-434)
chain: MEVRPKESWNHADFVHCEDTESVPGKPSVNADEEVGGPQICRVCGDKATGYHFNVMTCEGCKGFFRRAMKRNARLRCPFRKGACEITRKTRRQCQACRLRKCLESGMKKEMIMSDEAVEERRALIKRKKSERTGTQPLGVQGLTEEQRMMIRELMDAQMKTFDTTFSHFKNFRLPGVLSSGCELPESLQAPSREEAAKWSQVRKDLCSLKVSLQLRGEDGSVWNYKPPADSGGKEIFSLLPHMADMSTYMFKGIISFAKVISYFRDLPIEDQISLLKGAAFELCQLRFNTVFNAETGTWECGRLSYCLEDTAGGFQQLLLEPMLKFHYMLKKLQLHEEEYVLMQAISLFSPDRPGVLQHRVVDQLQEQFAITLKSYIECNRPQPAHRFLFLKIMAMLTELRSINAQHTQRLLRIQDIHPFATPLMQELFGITGS
